One compound from US20110293518A1 (GE HEALTHCARE LIMITED, priority 2005, published 2011) can be followed below.

The data set in a line: PET with DDE in inflamed joints (rheumatoid arthritis patients). The settings on record: patients with rheumatoid arthritis given the tracer.

The structures appear in SMILES notation.

With `C#CCN([11CH3])[C@@H](C)Cc1ccccc1` [DDE, D-[methyl-^11C]-deprenyl], the “radioactivity concentration in synovial fluid” value is recorded as “low radioactivity”.
